Experimental data from the supplement of paper PMC3334620.
Over roughly 33,000 sequences, “E-score (-0.5 to 0.5)” has its median near -0.0059; the highest 2% begin near 0.26. Some of the results follow.

molecular target: T1, Cin5 (UniProt P40917); assay: PBM E-score (8-mer binding enrichment) (E-score (-0.5 to 0.5)); higher = stronger / more preferred TF binding; details: protein concentration: 100 nM; construct: GST-full length
T1 sequence: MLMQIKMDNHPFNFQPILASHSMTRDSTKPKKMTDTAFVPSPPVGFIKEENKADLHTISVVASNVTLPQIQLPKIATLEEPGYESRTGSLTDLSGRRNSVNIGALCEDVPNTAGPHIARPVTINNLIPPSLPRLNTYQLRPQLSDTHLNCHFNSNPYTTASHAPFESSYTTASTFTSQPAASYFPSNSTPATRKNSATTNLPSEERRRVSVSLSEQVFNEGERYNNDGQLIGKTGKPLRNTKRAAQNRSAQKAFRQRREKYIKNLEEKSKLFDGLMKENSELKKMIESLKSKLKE
Experimental: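 Universal 'all 10-mer' protein binding microarrays (Agilent AMADID 015681) probed with GST-tagged S. cerevisiae TFs (full-length or DBD) made by in vitro transcription/translation (PURExpress), about 100-200 nM. Bound TF was detected with fluorescent anti-GST. Each ungapped 8-mer (which stands for itself and its reverse complement) is scored by the PBM enrichment score (E-score), a modified Wilcoxon-Mann-Whitney statistic from -0.5 to +0.5, computed with the Universal PBM Analysis Suite. Scale: above 0.35 generally sequence-specific binding.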

Row | Sequence | PBM E-score
1 | GAACATCA | 0.0424
2 | GCTCGTCC | -0.0494
3 | ATGTGTAA | 0.148
4 | CAGTGCGC | -0.205
5 | CTTGACAC | -0.156
6 | ATCCGGCC | 0.0639
7 | GCCCTATA | -0.00992
8 | TAAAAAGA | 0.101
9 | ACGTGCGC | 0.0377
10 | CAACGCCA | -0.074
11 | TTCCCAAA | -0.0338
12 | CATGCTGA | 0.181
13 | ATACGAGC | 0.0999
14 | GTTCTGTA | 0.09
15 | CATACTGG | 0.0129
16 | ACTTCAGG | -0.0578
17 | AGAACATA | 0.142
18 | ATCATACG | 0.0906
19 | AAGGAACG | -0.174
20 | ATACTGAA | 0.0502
21 | AACACCTG | 0.0544
22 | AGCCGCCG | -0.00047
23 | GCGACTCA | -0.00138
24 | GAAAATTA | 0.222
25 | GGAACAAA | 0.32

Row | Sequence | PBM E-score
26 | CAGGCTCG | -0.141
27 | GTCCCAAA | -0.166
28 | CTAACTAC | -0.0509
29 | TCACGTGA | 0.103
30 | CCGACGGA | 0.0352
31 | GTAGGACA | 0.0213
32 | CATTTGAC | -0.0297
33 | CTTGAGCA | -0.216
34 | ACGGCAAT | 0.273
35 | CCACGTCG | -0.0517
36 | AGAATCAC | -0.13
37 | ACAACGGG | 0.0841
38 | GCTTACTA | 0.388
39 | ACTCACCG | -0.0737
40 | CGACTAGA | -0.093
41 | CCAGGCTA | -0.263
42 | CGGAATCC | 0.0489
43 | CTCGTGCA | -0.122
44 | CGCGATAC | 0.0866
45 | AATCCATA | 0.194
46 | CGTAGGAC | -0.206
47 | GACACAAA | 0.175
48 | CCTTTCTA | -0.0885
49 | ACAAGAAA | 0.168
50 | ACCAGGAC | -0.0636

Two entries picked at random from the list so far, as already listed:
Row | Sequence | PBM E-score
32 | CATTTGAC | -0.0297
50 | ACCAGGAC | -0.0636

Continuation.

Row | Sequence | PBM E-score
51 | AGGCGAGA | -0.128
52 | AGAATGAG | 0.0756
53 | ACAGATCG | -0.0199
54 | AAGCCTAG | -0.0965
55 | CTGCACGC | -0.186
56 | TGAGACCA | -0.078
57 | ATCTGTTG | -0.045
58 | GCGCTATA | 0.124
59 | AGCTGCGG | -0.187
60 | CACGTTAA | -0.0144
61 | AGTCCCGG | -0.111
62 | GAAACCCA | 0.2
63 | CTTAACAA | 0.0617
64 | AAAGCTCA | -0.0849
65 | AGACAATC | 0.112
66 | GAGCGGGC | -0.176
67 | ATGGGCAC | 0.057
68 | AGGATGAA | -0.0521
69 | GCGCTCAC | 0.0267
70 | ACAATGGG | 0.136
71 | AGTATAAA | 0.282
72 | CGTCTGTA | -0.163
73 | CCCGCGTA | 0.0352
74 | CTCGGTAC | -0.272
75 | TACCGGAA | 0.0588

Row | Sequence | PBM E-score
76 | CCCGACAA | 0.131
77 | CTAGGACC | -0.276
78 | AGTAGAGA | 0.00616
79 | GGTGTCCA | -0.0656
80 | ACTGAAAG | 0.0278
81 | CCCTTGGA | -0.101
82 | CCAGCGTA | -0.15
83 | GCGTTTCA | -0.0379
84 | CGTTACAC | 0.0126
85 | ATTACACC | 0.209
86 | CTACGCAC | -0.185
87 | CATCTGAC | -0.128
88 | CTACTTAC | 0.00104
89 | GCCGAACC | -0.132
90 | AACAATTA | 0.295
91 | GGTGGGAC | -0.313
92 | AATTCTGT | 0.0415
93 | AACTATCC | -0.0479
94 | AGCTATGC | -0.158
95 | CAATGGCA | 0.0879
96 | GAGTAGTA | 0.118
97 | CCAGTACC | -0.0552
98 | CCTACCCG | -0.066
99 | CACATAGC | -0.142
100 | AGCCGGGG | -0.224

Row | Sequence | PBM E-score
101 | ATGGCGCA | 0.146
102 | CGATCGAA | 0.189
103 | AATCCGCG | 0.0184
104 | ACTATTTA | 0.0665
105 | TATTTGCA | 0.162
106 | TGTCCACA | 0.0175
107 | AAGTATTG | 0.165
108 | GGAGCCGA | -0.282
109 | CCCAGTTC | 0.175
110 | GTGTTTGA | 0.157
111 | ACACTGAT | 0.0458
112 | GCTCCGAA | 0.0922
113 | AGTATTCC | 0.225
114 | CAGCACTA | -0.0379
115 | AATCTTCA | 0.199
116 | CGACCCAC | -0.0923
117 | AGGAAGCC | -0.151
118 | AAGCATTG | 0.0496
119 | GAACGGAC | -0.141
120 | AGGAGATC | -0.021
121 | AGCCTTAA | -0.0564
122 | AAGGGTAC | -0.137
123 | AACAAGTG | -0.0526
124 | GTGGAGCA | -0.212
125 | GAATTCAA | 0.106

From entry 118 as far as 121, as listed above:
Row | Sequence | PBM E-score
118 | AAGCATTG | 0.0496
119 | GAACGGAC | -0.141
120 | AGGAGATC | -0.021
121 | AGCCTTAA | -0.0564

Next records follow.

Row | Sequence | PBM E-score
126 | CCGAGGTA | 0.00392
127 | GGCATCCA | -0.172
128 | GGTTAGCA | -0.0843
129 | AAAAATGC | 0.0727
130 | GAAGCTTC | -0.0695
131 | CTTGCCGC | -0.212
132 | CTATTCGA | 0.0762
133 | AGATGCAC | -0.0611
134 | CAAAGTCA | 0.107
135 | GGCCTAAC | -0.0895
136 | CAACTGCC | 0.0563
137 | GCTAGGGA | -0.0341
138 | ATCCACCC | 0.126
139 | TCAGTGAA | 0.0711
140 | ACCTGGCG | -0.28
141 | CCATGATC | -0.117
142 | AACCTATT | 0.148
143 | AGGGAACG | -0.167
144 | ACTGATTG | 0.112
145 | CCCTAAGA | -0.244
146 | CCAAGACC | -0.195
147 | CTTTTTCA | -0.0923
148 | ATCGTTCA | 0.0852
149 | AGATATAA | 0.148
150 | CTAAAGAC | -0.147

Row | Sequence | PBM E-score
151 | AGCTATAA | 0.00654
152 | CGGGGAAG | -0.0981
153 | ACGTGAAG | -0.142
154 | ATGAGCAC | -0.0764
155 | CCACGTAC | -0.0849
156 | CAGCGAGA | 0.0156
157 | AAAAATCC | 0.0745
158 | GATCCAGC | 0.0233
159 | AAAGAAAC | 0.046
160 | ATTCTGGC | -0.123
161 | CTCAAATC | 0.0748
162 | CCACGGCC | -0.3
163 | AACCAAAG | 0.0345
164 | AATGTGGG | 0.12
165 | ACTGGCCC | 0.0258
166 | CCGGGGTA | -0.0599
167 | CCAGGGGG | -0.433
168 | GCGAACAA | 0.224
169 | GCGTCTCA | -0.224
170 | AACAGGGC | 0.0391
171 | ACCGCCCA | -0.142
172 | AAGAGACA | 0.169
